Article PMC6944463
These are yes or no findings as the source states them, for the method shown. Binding seen in cells or lysates may run through a third protein. Some results given as binding are weak or reduced against the parent protein; the word gives no strength. For part of these data: Sequences can lack the tags named with a protein. Values belong to the molecule of their own block, whether it stands above or below them.

Columns and labels:
Test in all cases: co-IP; HEK-293 cells co-transfected with Flag- and HA-tagged THAP constructs; whole-cell lysates, anti-HA immunoprecipitation, immunoblot with anti-HA and anti-Flag
[1] = target: THAP11 (Flag- or HA-epitope-tagged) (human) (UniProt Q96EK4)
[2] = target: THAP7 (Flag- or HA-epitope-tagged) (human) (UniProt Q9BT49)
[3] = target: T1, THAP11 (Flag- or HA-epitope-tagged) (human), Q96EK4; details: remark: other sources report otherwise
T1 chain: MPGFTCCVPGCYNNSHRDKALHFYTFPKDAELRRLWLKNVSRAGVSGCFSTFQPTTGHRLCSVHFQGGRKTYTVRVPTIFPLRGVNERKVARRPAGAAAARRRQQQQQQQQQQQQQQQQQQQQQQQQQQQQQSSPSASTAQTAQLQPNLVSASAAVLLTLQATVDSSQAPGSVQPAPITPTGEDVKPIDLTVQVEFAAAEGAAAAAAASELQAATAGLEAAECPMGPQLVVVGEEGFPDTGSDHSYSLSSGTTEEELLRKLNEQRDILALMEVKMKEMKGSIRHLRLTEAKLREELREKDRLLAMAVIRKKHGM

binding [1]: binds
Molecule: THAP11 (Flag- or HA-epitope-tagged) (from UniProt Q96EK4 1-314)

binding [2]: binds
B1: THAP7 (Flag- or HA-epitope-tagged) (protein, UniProt Q9BT49 1-309)
chain: MPRHCSAAGCCTRDTRETRNRGISFHRLPKKDNPRRGLWLANCQRLDPSGQGLWDPASEYIYFCSKHFEEDCFELVGISGYHRLKEGAVPTIFESFSKLRRTTKTKGHSYPPGPAEVSRLRRCRKRCSEGRGPTTPFSPPPPADVTCFPVEEASAPATLPASPAGRLEPGLSSPFSDLLGPLGAQADEAGCSAQPSPERQPSPLEPRPVSPSAYMLRLPPPAGAYIQNEHSYQVGSALLWKRRAEAALDALDKAQRQLQACKRREQRLRLRLTKLQQERAREKRAQADARQTLKEHVQDFAMQLSSSMA

binding [3]: no binding
B2: THAP7 (Flag- or HA-epitope-tagged), Q9BT49 1-309 (protein)
chain: B1 chain
